Taken from: PubChem BioAssay AID1224829 (NIAID, 2016)
The deposit covers about 3,800 reagents; this is a part drawn at random. 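Calls cover raised and lowered translocation; gene median uses one vendor's three siRNAs; qiagen siRNAs acted more weakly than ambion siRNAs.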 Reagents against one gene are numbered here.

Test: 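Follow-up of TLR4-NF-kappaB regulators using six separate siRNAs for each gene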 (follow-up of hits)
Cells: mouse RAW264.7 G9 macrophage reporter cells
Knock-down reagent: single siRNA against mouse genes, 100 nM
Time to read-out: 2 days of siRNA knock-down, then 40 min of LPS before fixing
Conditions: LPS (Salmonella minnesota R595) at 10 ng/ml
Measurement: 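Imaging of GFP-p65 after 40 min of LPS; nuclear over perinuclear ring intensity ratio, scaled to plate median and non-targeting control wells, given as z-score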
Reading the numbers: p65 translocation z-score and gene median z-score, per vendor: higher = more nuclear NF-kappaB p65 after LPS
Hit rule: 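An siRNA is called active when the mean z-score of its two replicates is above 2 or below -2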
Calls: active = changed p65 translocation (either direction); inactive = no clear change

gene knocked down	reagent	siRNA vendor or control pool	p65 translocation z-score, replicate mean	p65 translocation z-score, replicate 1	p65 translocation z-score, replicate 2	gene median z-score, per vendor	outcome
Or4a39	1	ambion single siRNA	0.238	1.08	-0.6	-1.29	inactive
Or4a39	2	ambion single siRNA	-2.81	-1.98	-3.65	-1.29	active
Or4a39	3	ambion single siRNA				-1.29	inactive
Or4a39	4	qiagen single siRNA	1.79	1.24	2.34	0.256	inactive
Or4a39	5	qiagen single siRNA	0.256	-0.205	0.718	0.256	inactive
Or4a39	6	qiagen single siRNA	-1.69	-2.02	-1.37	0.256	inactive
Nagpa	1	ambion single siRNA	-0.305	0.0106	-0.62	-0.305	inactive
Nagpa	2	ambion single siRNA	-2.7	-2.83	-2.57	-0.305	active
Nagpa	3	ambion single siRNA	1.39	1.53	1.24	-0.305	inactive
Nagpa	4	qiagen single siRNA	1.36	0.352	2.36	-0.665	inactive
Nagpa	5	qiagen single siRNA	-0.665	-0.717	-0.612	-0.665	inactive
Nagpa	6	qiagen single siRNA	-5.07	-3.19	-6.95	-0.665	active
S1pr5	1	ambion single siRNA	-1.45	-0.569	-2.33	-1.98	inactive
S1pr5	2	ambion single siRNA	-2.74	-3.84	-1.63	-1.98	active
S1pr5	3	ambion single siRNA				-1.98	inactive
S1pr5	4	qiagen single siRNA	1.38	1.65	1.1	1.38	inactive
S1pr5	5	qiagen single siRNA	1.61	0.501	2.72	1.38	inactive
S1pr5	6	qiagen single siRNA	1.42	2.27	0.56	1.38	inactive
Ca5a	1	ambion single siRNA	-2.61	-1.61	-3.61	-2.02	active
Ca5a	2	ambion single siRNA	-2.17	-2.31	-2.02	-2.02	active
Ca5a	3	ambion single siRNA	-0.397	-0.397		-2.02	inactive
Ca5a	4	qiagen single siRNA	2.33	1.6	3.05	0.285	active
Ca5a	5	qiagen single siRNA	-1.73	-0.273	-3.19	0.285	inactive
Ca5a	6	qiagen single siRNA	0.285	-0.202	0.773	0.285	inactive
Ctif	1	ambion single siRNA	-2.81	-3.75	-1.87	-0.56	active
Ctif	2	ambion single siRNA	-0.56	0.515	-1.63	-0.56	inactive
Ctif	3	ambion single siRNA	1.48	1	1.95	-0.56	inactive
Ctif	4	qiagen single siRNA	0.684	-0.425	1.79	-0.135	inactive
Ctif	5	qiagen single siRNA	-0.53	-1.22	0.156	-0.135	inactive
Ctif	6	qiagen single siRNA	0.0398	-1.2	1.28	-0.135	inactive
Pard6a	1	ambion single siRNA	-0.483	0.298	-1.26	-1.26	inactive
Pard6a	2	ambion single siRNA	-1.52	-1.63	-1.4	-1.26	inactive
Pard6a	3	ambion single siRNA	-0.472	0.319	-1.26	-1.26	inactive

Entries listed so far whose target name starts with N or n (6):
gene knocked down	reagent	siRNA vendor or control pool	p65 translocation z-score, replicate mean	p65 translocation z-score, replicate 1	p65 translocation z-score, replicate 2	gene median z-score, per vendor	outcome
Nagpa	1	ambion single siRNA	-0.305	0.0106	-0.62	-0.305	inactive
Nagpa	2	ambion single siRNA	-2.7	-2.83	-2.57	-0.305	active
Nagpa	3	ambion single siRNA	1.39	1.53	1.24	-0.305	inactive
Nagpa	4	qiagen single siRNA	1.36	0.352	2.36	-0.665	inactive
Nagpa	5	qiagen single siRNA	-0.665	-0.717	-0.612	-0.665	inactive
Nagpa	6	qiagen single siRNA	-5.07	-3.19	-6.95	-0.665	active

Further results follow:
gene knocked down	reagent	siRNA vendor or control pool	p65 translocation z-score, replicate mean	p65 translocation z-score, replicate 1	p65 translocation z-score, replicate 2	gene median z-score, per vendor	outcome
Dennd1c	1	ambion single siRNA	-5.41	-6.88	-3.94	-2.33	active
Dennd1c	2	ambion single siRNA	-1.93	-1.64	-2.23	-2.33	inactive
Dennd1c	3	ambion single siRNA	-2.29	-2.43	-2.15	-2.33	active
Dennd1c	4	qiagen single siRNA	0.454	-0.691	1.6	-0.899	inactive
Dennd1c	5	qiagen single siRNA	-0.994	-2.6	0.613	-0.899	inactive
Dennd1c	6	qiagen single siRNA	-1.13	-1.11	-1.15	-0.899	inactive
Muc19	1	ambion single siRNA	-5.1	-5.1		-3.13	active
Muc19	2	ambion single siRNA	-1.48	-0.0462	-2.91	-3.13	inactive
Muc19	3	ambion single siRNA	-3.17	-3.22	-3.13	-3.13	active
Muc19	4	qiagen single siRNA	1.91	1.68	2.14	-1.05	inactive
Muc19	5	qiagen single siRNA	-1.05	-0.487	-1.61	-1.05	inactive
Muc19	6	qiagen single siRNA	-5.98	-3.36	-8.61	-1.05	active
Scamp5	1	ambion single siRNA	4.04	5.23	2.86	-0.546	active
Scamp5	2	ambion single siRNA	-0.546	-1.16	0.0725	-0.546	inactive
Scamp5	3	ambion single siRNA	-4.15	-3.58	-4.72	-0.546	active
Scamp5	4	qiagen single siRNA	0.454	-0.775	1.68	0.0183	inactive
Scamp5	5	qiagen single siRNA	-1.83	-4.53	0.865	0.0183	inactive
Scamp5	6	qiagen single siRNA	0.0183	-0.394	0.431	0.0183	inactive
